Measurements taken from patent publication US20160289326A1.
These are yes or no findings as the source states them, for the method shown. Some results given as binding are weak or reduced against the parent protein; the word gives no strength.

By UniProt entry, the sequences of proteins in these tests, tags left out. Residues count along the entry.
UniProt Q07954, residues 3332-3778: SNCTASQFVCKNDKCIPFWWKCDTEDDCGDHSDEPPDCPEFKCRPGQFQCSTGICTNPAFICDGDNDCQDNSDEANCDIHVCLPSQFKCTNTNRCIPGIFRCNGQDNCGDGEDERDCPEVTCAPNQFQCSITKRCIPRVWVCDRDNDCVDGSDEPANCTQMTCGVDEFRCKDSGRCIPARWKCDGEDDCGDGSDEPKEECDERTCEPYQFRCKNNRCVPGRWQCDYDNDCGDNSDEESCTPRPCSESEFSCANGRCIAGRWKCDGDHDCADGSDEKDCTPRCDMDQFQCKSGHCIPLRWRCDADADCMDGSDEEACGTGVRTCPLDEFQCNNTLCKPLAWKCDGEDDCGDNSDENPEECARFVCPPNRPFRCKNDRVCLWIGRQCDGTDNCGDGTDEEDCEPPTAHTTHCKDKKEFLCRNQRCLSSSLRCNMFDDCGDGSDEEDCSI

Biological target: cell surface calreticulin (human) (human) (UniProt P27797)
Test: flow cytometry on live staurosporine-treated Molm 13 cells, secondary anti-Fc antibody

How did the binding turn out when “LRP1 cluster IV-Fc protein (from UniProt Q07954 3332-3778) (Fc fusion)” was run?
The binding was “binds”.
